# These are yes or no findings as the source states them, for the method shown. In cells and extracts the contact can be indirect. Binding calls can cover weak binding; strength is not graded here. Tags and fused reporters may be left off the sequences shown.
# Target: MBP-fusion protein with the CT domain of IL1RAPL1 (mouse)
# Assay: pull-down; lysates of transfected HEK 293T cells incubated with amylose resins coupled to purified MBP-fusion proteins of IL1RAPL1 domains; immunoblotting with anti-FLAG or anti-Myc antibody; only the target purified
row,binding,Binder
1,binds,"FLAG-Rasal1 (protein, UniProt Q9Z268 1-799) MAKSGSLSIRVVEGRALPAKDVSGSSDPYCLVKVDDQVVARTATIWRSLSPFWGEEYTVHLPLDFHHLAFYVLDEDTVGHDDIIGKISLSKEAITADPRGIDSWINLSRVDPDAEVQGEVCLDVKLLEDARGRCLRCHVRQARDLAPRDISGTSDPFARVFWGNHSLETSTIKKTRFPHWDEVLELREAPGTTSPLRVELWDWDMVGKNDFLGMVEFTPQTLQQKPPNGWFRLLPFPRAEDSGGSLGALRLKVRLTEDRVLPSQYYQPLMELLLESVQGPAEEDTTSPLALLEELASGDCRQDLATKLVKLFLGRGLAGPFLDYLTRREVARTNDPNTLFRSNSLASKSMEQFMKLVGMRYLHEVLRPVISRVFEEKKYMELDPCKMDLNRSRRISFKGTPTEEQVRETSLGLLTGYLGSVVDAIVSSTGRCPLALRLAFKQLQRCVEKRFSGIEHQDVKYLAISGFLFLRFFAPAILTPKLFDLRDQHADPQTSRSLLLLAKAVQSIGNLGQQLGQGKEQWLAPLHPFLLQSISRVRDFLDQLVDVDEDEEAGGPACALVQPSTIVREGFLLKRKEEPGGLATRFAFKKRYFRLSGRDLSYSKTPEWQVHTSIPLSCIRAVEHVDEGAFQLPHVMQVVTQDGAGTSHTTYLQCKNVNDLNQWLSALRKASAPNPGKLVACHPGAFRSGRWTCCLQAERSAAGCSRTHSAITLGDWSDPLDPDAEAQAVYRQLLLGRDQLRLKLLEDSSLDTEVDPGRDSSATDGPCAEVLAQQRAATTHLLQVLEDLEQAHEEFQKRG"
2,binds,"myc-PLCβ1 (enzyme, UniProt Q9Z1B3 1-1216) MAGAQPGVHALQLKPVCVSDSLKKGTKFVKWDDDSTIVTPIILRTDPQGFFFYWTDQNKETELLDLSLVKDARCGKHAKAPKDPKLRELLDVGNIGHLEQRMITVVYGPDLVNISHLNLVAFQEEVAKEWTNEVFSLATNLLAQNMSRDAFLEKAYTKLKLQVTPEGRIPLKNIYRLFSADRKRVETALEACSLPSSRNDSIPQEDFTPDVYRVFLNNLCPRPEIDNIFSEFGAKSKPYLTVDQMMDFINLKQRDPRLNEILYPPLKQEQVQVLIEKYEPNSSLAKKGQMSVDGFMRYLSGEENGVVSPEKLDLNEDMSQPLSHYFINSSHNTYLTAGQLAGNSSVEMYRQVLLSGCRCVELDCWKGRTAEEEPVITHGFTMTTEISFKEVIEAIAECAFKTSPFPILLSFENHVDSPKQQAKMAEYCRLIFGDALLMEPLEKYPLESGVPLPSPMDLMYKILVKNKKKSHKSSEGSGKKKLSEQASNTYSDSSSVFEPSSPGAGEADTESDDDDDDDDCKKSSMDEGTAGSEAMATEEMSNLVNYIQPVKFESFEISKKRNKSFEMSSFVETKGLEQLTKSPVEFVEYNKMQLSRIYPKGTRVDSSNYMPQLFWNAGCQMVALNFQTVDLAMQINMGMYEYNGKSGYRLKPEFMRRPDKHFDPFTEGIVDGIVANTLSVKIISGQFLSDKKVGTYVEVDMFGLPVDTRRKAFKTKTSQGNAVNPVWEEEPIVFKKVVLPSLACLRIAAYEEGGKFIGHRILPVQAIRPGYHYICLRNERNQPLTLPAVFVYIEVKDYVPDTYADVIEALSNPIRYVNLMEQRAKQLAALTLEDEEEVKKEADPGETSSEAPSETRTTPAENGVNHTASLAPKPPSQAPHSQPAPGSVKAPAKTEDLIQSVLTEVEAQTIEELKQQKSFVKLQKKHYKEMKDLVKRHHKKTTELIKEHTTKYNEIQNDYLRRRAALEKSAKKDSKKKSEPSSPDHGSSAIEQDLAALDAEMTQKLIDLKDKQQQQLLNLRQEQYYSEKYQKREHIKLLIQKLTDVAEECQNNQLKKLKEICEKEKKELKKKMDKKRQEKITEAKSKDKSQMEEEKTEMIRSYIQEVVQYIKRLEEAQSKRQEKLVEKHNEIRQQILDEKPKLQTELEQEYQDKFKRLPLEILEFVQEAMKGKISEDSNHGSAPPSLASDAAKVNLKSPSSEEIERENPGREFDTPL"
3,binds,"myc-SNIP (protein, UniProt Q9QWI6 1-1250) MQPWQCLRRFALAWWERTAEGRARSPREEVGPRDPGGRGEPDPERSSPPMLSADDAEYPREYRTLGGGGGGGSGGRRFSNVGLVHTSERRHTVIAAQSLEALSGLQKADADRKRDAFMDHLKSKYPQHALALRGQQDRMREQVGGWTVDPVCLLSSLCSHLHGDSTPSGAGQPAQQPNYWSFKTRSSRHTQGAQPGLADQAAKLSYASAESLETMSEAELPLGFSRMNRFRQSLPLSRSASQTKLRSPGVLFLQFGEETRRVHITHEVSSLDTLHALIAHMFPQKLTMGMLKSPNTAILIKDEARNVFYELEDVRDIQDRSIIKIYRKEPLYAAFPGSHLTNGDLRREMVYASRESSPTRRLNNLSPASHLASSSPPPGLPSGLPSGLPSGSPSRSRLSYAGGRPPSYAGSPVHHAAERLGGAPTGQGVSPSPSAILERRDVKPDEDLAGKAGGMVLVKGEGLYADPYGLLHEGRLSLAAAAETHSHTRARAACTSGVPCALSAPTPLPRCSPTWRTRCTRRALAALYGDGYGFRLPPSSPQKLADVSAPSGGPPPPHSPYSGPPSRGSPVRQSFRKDSGSSSVFAESPGGKARSTGSASTAGAPPSELFPGPGERSLVGFGPPVPAKDTETRERMEAMEKQIASLTGLVQSALLRGSEPETPSEKVEGSNGAATPSAPVCGSGSKSSGATPVSGPPPPSASSTPAGQPTAVSRLQMQLHLRGLQNSASDLRGQLQQLRNVQLQNQESVRALLKPTEADVSMRVSEAARRQEDPLQRQRTLVEEERLRYLNDEELITQQLNDLEKSVEKIQRDVAHNHRLMPGPELEEKALVLKQLGETLTELKAHFPGLQSKMRVVLRVEVEAVKFLKEEPQRLDGLLKRCRGVTDTLAQIRRQVDEGMWPPPNNLLNQSPKKVAAETDFSKGLDFEIPPPSPPLNLHELSGPAEGTPLTPKSTNPTKCLDASSKRNTDKAVSVEAAERDWEEKRAALTQYSAKDINRLLEETQAELLKAIPDLDCASKTHPGPAPTPDHKPPKAPHGQKAAPRTEPSGRRGSDELTVPRYRTEKPSKSPPPPPPRRSFPSSHGLTTTRTGEVVVTSKKDSVFIKKAESEELEVQKPQVKLRRAVSEVVRPASTPPIMASAIKDEDDEERIIAELESGGSSVPPMKVVTPGASRLKAAQGPAGSPDKGKHGKQRTEYMRIQAQQQATKPSKEVSGPNETSSPGSEKPSGSRTSIPVLTSFGARNSSISF"
